Source: PMC8931116

Sequences of proteins named here, by UniProt entry; tags and fusion partners are left off.
UniProt P13864: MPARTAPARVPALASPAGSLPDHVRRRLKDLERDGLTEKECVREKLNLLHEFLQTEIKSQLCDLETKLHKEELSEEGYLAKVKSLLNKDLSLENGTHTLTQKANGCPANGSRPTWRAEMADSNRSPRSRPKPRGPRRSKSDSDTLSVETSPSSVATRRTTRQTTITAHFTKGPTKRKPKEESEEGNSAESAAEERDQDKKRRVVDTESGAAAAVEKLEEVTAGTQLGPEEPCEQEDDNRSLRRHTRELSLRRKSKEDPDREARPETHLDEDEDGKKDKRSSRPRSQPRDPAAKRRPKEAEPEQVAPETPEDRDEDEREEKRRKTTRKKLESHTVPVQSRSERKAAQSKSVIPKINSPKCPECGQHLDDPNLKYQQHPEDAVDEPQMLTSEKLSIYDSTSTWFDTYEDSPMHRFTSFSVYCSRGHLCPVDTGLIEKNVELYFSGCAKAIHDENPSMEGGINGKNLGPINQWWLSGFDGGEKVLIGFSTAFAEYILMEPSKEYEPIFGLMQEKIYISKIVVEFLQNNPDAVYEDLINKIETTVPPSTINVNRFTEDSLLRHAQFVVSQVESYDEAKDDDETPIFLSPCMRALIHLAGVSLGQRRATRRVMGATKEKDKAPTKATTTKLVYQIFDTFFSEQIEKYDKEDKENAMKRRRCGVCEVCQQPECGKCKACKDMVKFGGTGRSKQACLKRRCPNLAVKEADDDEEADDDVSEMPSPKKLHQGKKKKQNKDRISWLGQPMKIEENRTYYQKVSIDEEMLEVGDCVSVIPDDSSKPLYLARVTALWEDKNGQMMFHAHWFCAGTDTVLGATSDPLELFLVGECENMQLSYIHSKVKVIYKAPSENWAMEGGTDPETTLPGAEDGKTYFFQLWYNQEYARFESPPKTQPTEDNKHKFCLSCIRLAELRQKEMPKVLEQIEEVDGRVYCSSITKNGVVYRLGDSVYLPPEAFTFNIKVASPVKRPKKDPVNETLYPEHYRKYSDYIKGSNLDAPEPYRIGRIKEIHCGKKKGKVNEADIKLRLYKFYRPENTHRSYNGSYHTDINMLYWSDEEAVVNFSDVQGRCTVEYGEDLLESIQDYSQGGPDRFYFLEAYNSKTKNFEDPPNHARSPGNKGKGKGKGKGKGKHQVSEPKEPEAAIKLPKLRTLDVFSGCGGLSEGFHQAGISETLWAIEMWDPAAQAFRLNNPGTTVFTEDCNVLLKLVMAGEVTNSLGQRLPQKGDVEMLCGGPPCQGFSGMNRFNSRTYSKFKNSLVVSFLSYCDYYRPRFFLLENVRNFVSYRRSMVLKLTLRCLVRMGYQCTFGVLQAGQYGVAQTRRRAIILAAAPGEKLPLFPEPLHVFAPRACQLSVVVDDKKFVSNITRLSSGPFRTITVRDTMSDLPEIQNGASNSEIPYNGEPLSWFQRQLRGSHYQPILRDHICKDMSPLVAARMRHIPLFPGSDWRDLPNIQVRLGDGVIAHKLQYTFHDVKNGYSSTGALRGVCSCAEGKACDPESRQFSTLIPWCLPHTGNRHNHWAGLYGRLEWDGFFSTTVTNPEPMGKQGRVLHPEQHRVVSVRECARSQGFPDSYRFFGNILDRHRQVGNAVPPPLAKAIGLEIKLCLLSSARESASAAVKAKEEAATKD
UniProt Q9Z148: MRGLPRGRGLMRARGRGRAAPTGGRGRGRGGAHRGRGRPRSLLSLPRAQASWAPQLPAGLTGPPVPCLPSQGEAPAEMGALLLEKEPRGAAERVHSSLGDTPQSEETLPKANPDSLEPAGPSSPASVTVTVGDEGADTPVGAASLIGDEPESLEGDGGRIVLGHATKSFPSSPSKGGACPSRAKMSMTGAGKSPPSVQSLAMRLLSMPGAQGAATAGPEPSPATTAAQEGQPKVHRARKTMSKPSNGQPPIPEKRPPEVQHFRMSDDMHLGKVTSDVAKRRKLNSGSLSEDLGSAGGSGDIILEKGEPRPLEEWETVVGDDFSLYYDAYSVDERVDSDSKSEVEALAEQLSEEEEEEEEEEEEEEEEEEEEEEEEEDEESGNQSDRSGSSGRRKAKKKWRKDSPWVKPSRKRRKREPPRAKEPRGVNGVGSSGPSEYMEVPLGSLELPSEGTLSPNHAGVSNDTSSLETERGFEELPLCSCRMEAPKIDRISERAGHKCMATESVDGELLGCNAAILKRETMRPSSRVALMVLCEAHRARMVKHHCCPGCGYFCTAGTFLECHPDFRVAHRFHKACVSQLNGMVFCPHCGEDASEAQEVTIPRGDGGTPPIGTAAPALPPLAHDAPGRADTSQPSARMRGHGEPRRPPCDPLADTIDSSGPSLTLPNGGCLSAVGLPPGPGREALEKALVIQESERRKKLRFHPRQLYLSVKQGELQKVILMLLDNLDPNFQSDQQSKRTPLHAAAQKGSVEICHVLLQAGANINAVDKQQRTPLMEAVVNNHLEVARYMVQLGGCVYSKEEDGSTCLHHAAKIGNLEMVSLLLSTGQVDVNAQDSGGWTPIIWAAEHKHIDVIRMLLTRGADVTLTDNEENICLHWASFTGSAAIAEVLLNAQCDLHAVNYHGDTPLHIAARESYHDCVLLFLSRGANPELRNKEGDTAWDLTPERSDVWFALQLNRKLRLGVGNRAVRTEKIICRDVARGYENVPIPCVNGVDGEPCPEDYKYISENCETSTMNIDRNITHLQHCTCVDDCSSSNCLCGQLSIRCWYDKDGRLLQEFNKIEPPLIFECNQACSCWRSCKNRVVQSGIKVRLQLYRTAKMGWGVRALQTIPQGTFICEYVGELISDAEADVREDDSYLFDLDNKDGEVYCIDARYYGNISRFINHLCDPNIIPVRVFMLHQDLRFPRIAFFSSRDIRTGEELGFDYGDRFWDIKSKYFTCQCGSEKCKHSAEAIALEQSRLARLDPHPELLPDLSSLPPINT
UniProt Q3TKT4: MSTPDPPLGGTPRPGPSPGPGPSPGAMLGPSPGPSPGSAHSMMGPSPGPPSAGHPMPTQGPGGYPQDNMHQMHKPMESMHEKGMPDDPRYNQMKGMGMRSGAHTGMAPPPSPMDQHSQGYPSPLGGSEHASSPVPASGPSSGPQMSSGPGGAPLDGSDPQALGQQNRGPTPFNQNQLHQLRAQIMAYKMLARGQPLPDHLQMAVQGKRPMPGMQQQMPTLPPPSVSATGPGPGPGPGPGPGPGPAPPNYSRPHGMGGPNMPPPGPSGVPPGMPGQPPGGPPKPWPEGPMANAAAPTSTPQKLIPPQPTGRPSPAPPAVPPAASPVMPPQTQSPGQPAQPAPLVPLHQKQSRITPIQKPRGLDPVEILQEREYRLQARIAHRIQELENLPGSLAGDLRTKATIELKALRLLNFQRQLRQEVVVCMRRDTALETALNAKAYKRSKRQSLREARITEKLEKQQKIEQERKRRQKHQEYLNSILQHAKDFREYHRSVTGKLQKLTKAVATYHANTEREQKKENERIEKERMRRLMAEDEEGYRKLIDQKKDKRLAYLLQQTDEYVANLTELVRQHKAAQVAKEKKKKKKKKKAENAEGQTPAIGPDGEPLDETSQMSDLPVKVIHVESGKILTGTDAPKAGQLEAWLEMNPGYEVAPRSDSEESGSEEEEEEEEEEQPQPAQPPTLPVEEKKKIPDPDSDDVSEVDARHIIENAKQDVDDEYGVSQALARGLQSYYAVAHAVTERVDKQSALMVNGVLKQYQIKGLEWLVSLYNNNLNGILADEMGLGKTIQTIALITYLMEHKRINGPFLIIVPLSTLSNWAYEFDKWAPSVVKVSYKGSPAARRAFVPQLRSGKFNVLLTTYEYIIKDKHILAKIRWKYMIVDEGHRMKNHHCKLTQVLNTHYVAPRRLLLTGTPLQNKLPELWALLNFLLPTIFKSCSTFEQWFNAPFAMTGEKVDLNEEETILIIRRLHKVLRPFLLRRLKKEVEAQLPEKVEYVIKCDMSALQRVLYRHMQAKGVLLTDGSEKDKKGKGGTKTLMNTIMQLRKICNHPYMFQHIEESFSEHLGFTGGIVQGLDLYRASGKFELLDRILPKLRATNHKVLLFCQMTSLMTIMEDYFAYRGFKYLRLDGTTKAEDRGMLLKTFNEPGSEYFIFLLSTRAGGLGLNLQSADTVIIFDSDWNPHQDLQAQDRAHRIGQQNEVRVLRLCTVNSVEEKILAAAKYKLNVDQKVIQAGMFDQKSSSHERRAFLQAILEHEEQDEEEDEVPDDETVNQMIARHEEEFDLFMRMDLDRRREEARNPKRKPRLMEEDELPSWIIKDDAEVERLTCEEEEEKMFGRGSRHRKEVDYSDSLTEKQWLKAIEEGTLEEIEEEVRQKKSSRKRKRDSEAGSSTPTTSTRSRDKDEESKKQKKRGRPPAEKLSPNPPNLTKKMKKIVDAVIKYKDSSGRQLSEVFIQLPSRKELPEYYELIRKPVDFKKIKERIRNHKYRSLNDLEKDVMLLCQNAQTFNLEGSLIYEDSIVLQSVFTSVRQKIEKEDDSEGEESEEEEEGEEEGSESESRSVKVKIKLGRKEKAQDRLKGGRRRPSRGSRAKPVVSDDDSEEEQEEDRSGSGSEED

target: T1, Oligodendrocyte Transcription Factor 2 OLIG2 (UniProt Q9EQW6); test: affinity purification with mass spectrometry; brain lysates pre-cleared with protein A-Sepharose, incubated with primary antibody and protein A-coated Sepharose beads for 2 hr at 4 °C, three washes in lysis buffer; SDS-PAGE, in-gel digestion, LC-MS/MS; proteins bound to OLIG2
T1 sequence: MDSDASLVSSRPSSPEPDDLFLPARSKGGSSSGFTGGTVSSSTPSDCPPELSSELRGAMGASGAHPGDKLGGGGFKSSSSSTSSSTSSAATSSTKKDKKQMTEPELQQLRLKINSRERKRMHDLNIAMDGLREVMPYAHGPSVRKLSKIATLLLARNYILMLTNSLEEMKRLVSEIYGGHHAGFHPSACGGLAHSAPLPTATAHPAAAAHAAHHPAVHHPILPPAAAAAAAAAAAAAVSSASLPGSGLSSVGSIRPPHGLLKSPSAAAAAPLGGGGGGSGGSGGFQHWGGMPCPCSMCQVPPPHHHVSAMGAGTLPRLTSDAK

binding	Substance
no binding	DNMT1 (from UniProt P13864 1-1620)
binds	EHMT2 (also known as G9a) (from UniProt Q9Z148 1-1263)
binds	SWI/SNF chromatin remodeling enzyme SMARCA4 (also known as BRG1) (from UniProt Q3TKT4 1-1613)

Results are given in words; binding and its absence hold for the method and conditions named. Binding seen in cells or lysates may run through a third protein. Here binding means that the protein was enriched with, or labelled near, the bait; the list need not be complete. A no says only that the protein was not detected with the bait.
